Patent US12070507B2, “Complexes and methods of reducing inflammation” (Drexel Univeristy, priority 2017, dated 2024)
At least one structure is not confirmed: it was looked up by name or label, or the drawing left a doubt.

What was measured:
[1] = tested on: primary human macrophages (M0, M1, M2a); assay: Macrophage gene expression (NanoString nCounter) after 6 h treatment; type: cell-based
[2] = tested on: collagen type II-induced arthritis (CIA) mice; assay: Arthritic score in collagen type II-induced arthritic mice after local injection; type: in vivo; conditions: Dex 0.1 μg/mL
[3] = tested on: collagen type II-induced arthritis (CIA) mice; assay: Ex vivo microCT examination of arthritic mouse limbs (bone volume); type: in vivo
[4] = tested on: collagen type II-induced arthritis (CIA) mice; assay: Histological examination (hematoxylin and eosin) of cell infiltration in hindlimb joints; type: in vivo; conditions: Dex 0.1 μg/mL, low ND-ODA 15 μg/mL
iNOS = assay: Immunohistochemistry (DAB) of iNOS in hindlimb tissue sections; type: in vivo, mice; conditions: Dex 0.1 μg/mL, low ND-ODA 15 μg/mL

SMILES: C[C@@H]1C[C@H]2[C@@H]3CCC4=CC(=O)C=C[C@]4(C)[C@@]3(F)[C@@H](O)C[C@]2(C)[C@@]1(O)C(=O)CO [Dex, dexamethasone]
- expression of non-phagocytosis-related M2c markers MMP7, MMP8, VCAN ([1]; Dex 0.1 and 1 μg/mL): did not significantly affect expression
- expression of M2c-associated CD163 and MERTK ([1]; Dex 0.1 and 1 μg/mL, all three phenotypes, not dose-dependent): upregulation
- expression of pro-inflammatory M1-associated genes TNF, IL1B, CCR7 ([1]; Dex 0.1 and 1 μg/mL, especially in M1 macrophages): significant dose-dependent reduction
- expression of M2a markers TIMP3, CCL22, MRC1 ([1]; Dex 0.1 and 1 μg/mL, most pronounced in M1 macrophages): decreased expression
- MMP7 expression by M1 macrophages ([1]; Dex, M1 macrophages): small yet significant decreases
- expression of angiogenic factors VEGFA, PDGFBB, MMP9 ([1]; high dose of Dex (1 μg/mL), especially M1 macrophages): decreased expression
- total arthritic score of all 4 limbs at the end of study (14 days) compared to the control ([2]; local injection twice, ND-ODA, ND-ODA-Dex): significantly reduced
- total arthritic score of all 4 limbs, course following day 3 (after second injection) ([2]; local injection twice, low ND-ODA 15 μg/mL, ND-ODA-Dex 0.1 μg/mL Dex/15 μg/mL ND-ODA): began to decrease
- arthritic scores of the hindlimbs at 14 days ([2]; total of 10 μL therapeutics, low ND-ODA 15 μg/mL, ND-ODA-Dex): significantly decreased
- bone volume of the forelimbs ([3]; Dex 0.1 μg/mL (one forelimb), low ND-ODA 15 μg/mL, not statistically significant): drastically increased
- average bone volume across all limbs ([3]; Dex 0.1 μg/mL, ND-ODA-Dex, not statistically significant): drastically increase
- bone surface appearance in reconstructed microCT images of forepaws ([3]; Dex 0.1 μg/mL, low ND-ODA 15 μg/mL): much smoother and well-connected
- bone volume of the hindlimbs ([3]; Dex 0.1 μg/mL, low ND-ODA 15 μg/mL, not statistically significant): the same effect
- cell infiltration at the joint site (hematoxylin staining) [4]: cell infiltration was decreased
- iNOS levels (DAB staining) (iNOS): reduces iNOS levels
